Reference: PubChem BioAssay AID504467 (National Center for Advancing Translational Sciences (NCATS), 2011)
Hit rate of the full screen: of about 330,000 compounds, about 7,700 (2.3%) were called active. The shares of active, inactive and inconclusive entries below differ from those in the screen. Calls follow the shape of the dose curve; as a rule, active = well fitted inhibition curve with a large enough effect; inconclusive = small, poorly fitted or top-dose-only effect, or effect the other way; inactive = flat fitted curve, though single readings scatter. Potencies beside an inconclusive call are fits to weak or partial responses and may not hold up.

assay: qHTS screen for small molecules that inhibit ELG1-dependent DNA repair in human embryonic kidney (HEK293T) cells expressing luciferase-tagged ELG1; conditions: HEK293T ELG1-luciferase reporter, luminescence, 16 h, DNA damage induced by 5-fluorouridine; activity change, negative = inhibition: at 46.1 µM (top of the series); also: nearly all actives have a fitted effect of over 55% in size
Outline: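 Cells (2,000 per well) received 5-fluorouridine plus test compound or DMSO and were incubated 16 hr at 37 °C, 5% CO2. Luciferase activity was read by luminescence 30 min after ONE-Glo addition; signal suppression marked inhibition of damage-induced ELG1 function.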
% is scaled to controls: 0 for no effect and ±100 for the full control effect; potency is read from the fitted curve at half-maximal effect.

| Structure (SMILES) | Potency | activity change, negative = inhibition |
| --- | --- | --- |
| COCC(=O)Nc1nc(-c2ccc(-c3ccccc3)cc2)cs1 | inconclusive: 20.6 µM [activator, partial curve] |  |
| O=C(CSc1ccc2nnc(-c3cccc(F)c3)n2n1)NCc1ccco1 |  | inactive: -0.61% |
| CCNc1nc(SCCOc2ccc(Br)cc2)nc(N(C)C)n1 | inconclusive: 18.3 µM [inhibitor, partial curve, poor fit] |  |
| COc1ccc(CCNC(=O)c2ccc(CSc3ccccc3)o2)cc1 | inconclusive: 36.6 µM [inhibitor, partial curve, poor fit] |  |
| CCN(CC(=O)Nc1ccc(OC)cc1)C(=O)Cc1coc2cc(C)c(C)cc12 | inconclusive: 16.4 µM [inhibitor, single point] |  |
| COc1cc(NC(=O)CCN2CCN(C/C=C/c3ccccc3)CC2)cc(OC)c1 | inconclusive: 20 µM [inhibitor, single point] |  |
| Cc1ccc2c(c1)[C@H]1[C@H](CO2)[C@H](c2ccccc2)[C@]2(C)C(=O)N(Cc3ccc(F)cc3)CC(=O)N12 | inconclusive: 23.1 µM [inhibitor, partial curve] |  |
| CCN(c1ccccc1)S(=O)(=O)c1ccc(Cl)c(C(=O)N2CCCC2)c1 |  | inactive: 12.5% |
| O=C(CSc1nc2ccccc2o1)N1CCN(S(=O)(=O)c2ccc3ccccc3c2)CC1 | inconclusive: 29.1 µM [inhibitor, single point] |  |
| O=c1c2cc(-c3ccccc3)sc2nc2n1N=C(c1cccs1)CS2 | inconclusive: 2.59 µM [activator, full curve] |  |
| CCCC(=O)NC(=S)Nc1nc(-c2ccc(OC)cc2)cs1 | inconclusive: 6.51 µM [activator, partial curve] |  |
| COC(=O)c1cc(/C=C/c2ccccc2)[nH]n1 | inconclusive: 16.4 µM [activator, partial curve] |  |
| CCOC(=O)c1cccc(NC(=O)CCS(=O)(=O)c2cccc3nsnc23)c1 | inconclusive: 25.9 µM [inhibitor, single point] |  |
| CCOc1ccc(/C=N/NC(=O)c2ccoc2C)cc1OC | inconclusive: 14.6 µM [activator, partial curve] |  |
| CCCCN(C)Cc1cc(=O)oc2cc3c(cc12)CCCC3 | inconclusive: 18.3 µM [activator, single point] |  |
| O=C(Cc1ccc(S(=O)(=O)N2CCOCC2)s1)Nc1cc(C(F)(F)F)ccc1N1CCCC1 | inconclusive: 20.6 µM [inhibitor, single point] |  |
| COc1ccccc1NC(=S)N(Cc1ccc(C)cc1)Cc1cccnc1 |  | inactive: -0.0718% |
| CCOc1ccc(NC(=S)N(CCN2CCOCC2)Cc2cc3cc4c(cc3[nH]c2=O)OCO4)cc1 | active: 20.6 µM |  |
| COc1cc(C=O)ccc1OCCOc1ccccc1[N+](=O)[O-] | inconclusive: 23.1 µM [activator, partial curve] |  |
| CCOc1ccc(C(=O)NCC(=O)OCC(=O)N2CCC(C)CC2)cc1 | inconclusive: 29.1 µM [activator, single point] |  |
| CCc1noc(C)c1C(=O)N1CCN(S(=O)(=O)c2ccc(Br)cc2Cl)CC1 |  | inactive: 0.0524% |
| O=C(CSc1nnc(Cc2ccccc2)o1)c1ccccc1 | inconclusive: 14.6 µM [activator, single point] |  |
| COc1ccc(-c2cc3c(=O)n(CC(=O)NCCCN4CCN(Cc5ccccc5)CC4)ncn3n2)cc1 | inconclusive: 5.8 µM [activator, partial curve] |  |

| Structure (SMILES) | Potency | activity change, negative = inhibition |
| --- | --- | --- |
| O=C(NCCC(=O)N1CCc2ccccc21)c1ccco1 | inconclusive: 20.6 µM [activator, single point] |  |
| CCSc1nnc(-c2cccc(S(=O)(=O)N(C)C)c2)n1-c1cc(OC)ccc1OC | inconclusive: 29.1 µM [inhibitor, partial curve, poor fit] |  |
| O=C(c1ccc(S(=O)(=O)N2CCOCC2)cc1)N1CCN(c2cccc(Cl)c2)CC1 | inconclusive: 29.1 µM [inhibitor, single point] |  |
| C#CC[N+]1(CC#Cc2ccc(C)cc2)CCCCC1 |  | inactive: -19.6% |
| CCOc1ccc(Oc2c(/C=N/NC(C)=O)c(C)nn2-c2ccccc2)cc1 | inconclusive: 25.9 µM [inhibitor, single point] |  |
| O=C1C2CC=CCC2C(=O)N1c1ccc(NCCc2ccc(O)cc2)c([N+](=O)[O-])c1 (configuration not stated) | inconclusive: 10.3 µM [inhibitor, partial curve] |  |
| Cc1ccc(-c2csc3ncnc(Oc4ccc5c(C)cc(=O)oc5c4)c23)cc1 | active: 18.4 µM |  |
| CCN(CC)C(=O)C(=O)N/N=C/c1ccc(F)cc1 |  | inactive: 11.5% |
| O=C(C1CCCN(Cc2ccc([N+](=O)[O-])cc2)C1)N1CCCCC1 (configuration not stated) | inconclusive: 23.1 µM [inhibitor, single point] |  |
| CCC(CC)=N/N=C/c1c(O)n(CC)c2cc(C3=NNC(=O)CC3)ccc12 | active: 20.6 µM |  |
| Cc1ccc(O)c(CNc2cnc3ccccc3c2)c1 | inconclusive: 25.9 µM [activator, partial curve] |  |
| O=C(COC(=O)CC1CC2CCC1C2)Nc1cccc(S(=O)(=O)NC2=NCCCCC2)c1 (configuration not stated) |  | inactive: -6.12% |
| COc1ccccc1C(=O)Nc1c2c(nn1-c1cccc(C)c1C)CS(=O)(=O)C2 |  | inactive: -20.6% |
| Cc1cccc2[nH]c(-c3ccc(NC(=O)c4ccco4)cc3)nc12 | inconclusive: 2.59 µM [activator, partial curve] |  |
| CCOC(=O)c1ccc(N2CCN(c3ccc(F)cc3)CC2)c(NC(=O)Nc2cccc(OC)c2)c1 | inconclusive: 4.61 µM [inhibitor, single point] |  |
| COc1cccc(/C=N/Nc2nn3cnnc3c3ccccc23)c1O |  | inactive: -4.9% |
| CCCC(c1nnnn1CCc1ccccc1)N1CCN(C(=O)c2ccco2)CC1 (configuration not stated) | inconclusive: 3.26 µM [activator, partial curve, poor fit] |  |
| CC1CCCN(S(=O)(=O)c2ccc(NC(=O)C3CC(=O)N(c4ccccc4)C3)cc2)C1 (configuration not stated) | inconclusive: 32.6 µM [inhibitor, single point] |  |
| O=C(c1ccc(F)cc1)C1CCN(C(=O)c2c(F)cccc2F)CC1 |  | inactive: 1.66% |
| C=CCOc1c(CNc2cccc(C(=O)O)c2)cccc1OC | inconclusive: 11.6 µM [activator, partial curve] |  |
| Cc1cc(C)c(NC(=O)c2cc(=O)c3ccccc3o2)c(C)c1 | inconclusive: 18.4 µM [inhibitor, partial curve, poor fit] |  |
| CC/C(=N\NC(=O)c1csc(C)c1C)c1cccs1 | inconclusive: 8.2 µM [activator, partial curve] |  |
| CN(C)C=Nc1ncc2c([nH]c3ccccc32)c1C#N | inconclusive: 35.5 µM [inhibitor, single point] |  |

| Structure (SMILES) | Potency | activity change, negative = inhibition |
| --- | --- | --- |
| Cc1ccc2c(CN3CCCc4ccccc43)cc(=O)oc2c1C | inconclusive: 23.1 µM [activator, single point] |  |
| COc1ccc(CNC(=S)Nc2ccc(S(N)(=O)=O)cc2)cc1 | inconclusive: 29.1 µM [inhibitor, partial curve, poor fit] |  |
| CCCN(CC1CC1)C(=O)COC(=O)c1[nH]c(C)c(C(=O)OCC)c1C | inconclusive: 23.1 µM [inhibitor, single point] |  |
| CSc1ncccc1C(=O)Nc1cccc(S(=O)(=O)N2CCCCCC2)c1 | inconclusive: 16.4 µM [inhibitor, single point] |  |
| O=C(Cn1cnc2ccccc21)N/N=C/c1ccc([N+](=O)[O-])cc1 |  | inactive: 1.83% |
| O=C(CSc1nnc(-c2cccnc2)s1)Nc1ccc(C(=O)O)cc1 | inconclusive: 29.1 µM [activator, single point] |  |
| COc1ccc(-c2noc(-c3ccc(C)cc3)n2)cc1 | inconclusive: 5.8 µM [activator, partial curve] |  |
| Cn1c(SCc2ccccc2)nnc1-c1ccc(O)cc1 | inconclusive: 23.1 µM [activator, partial curve, poor fit] |  |
| Oc1c(Cl)cc(Cl)cc1/C=C/c1ccc2cccc(O)c2n1 | active: 23.1 µM |  |
| COc1ccc2nc3ccccc3nc2c1NC(=O)c1ccc(Cl)cc1Cl | inconclusive: 29.1 µM [activator, partial curve, poor fit] |  |
| Cc1nc(NC(=O)c2oc3ccccc3c2C)sc1C(=O)N(C)C | inconclusive: 2.91 µM [activator, partial curve] |  |
| COc1ccc2cc(CN(CCc3ccccc3)Cc3nnnn3Cc3ccco3)c(=O)[nH]c2c1 | inconclusive: 29.1 µM [inhibitor, single point] |  |
| Cn1nc(C(F)(F)F)c2cc(NC(=O)OCc3ccc(C(C)(C)C)cc3)sc21 | inconclusive: 23.1 µM [inhibitor, single point] |  |
| Cc1ccccc1OCCn1cc(C(=O)O)c2ccccc21 |  | inactive: 3.77% |
| Cc1cc(C)nc(/N=C(\N)Nc2ccc(F)c([N+](=O)[O-])c2)n1 | inconclusive: 9.2 µM [inhibitor, partial curve] |  |
| COc1ccc(S(=O)(=O)N2CCN(C(=S)Nc3ccc(S(N)(=O)=O)cc3)CC2)cc1 |  | inactive: 0.293% |
| CSc1nc(N)n2nc(C(C)(C)C)cc2n1 | inconclusive: 25.9 µM [activator, partial curve, poor fit] |  |
| CC(C(=O)c1ccccc1)n1c(N2CCOCC2)nc2c1c(=O)n(C)c(=O)n2C (configuration not stated) | inconclusive: 1.16 µM [inhibitor, single point] |  |
| CC1=C(C(=O)OCc2ccc3c(c2)OCO3)C(c2ccc(Cl)cc2)NC(=O)N1 (configuration not stated) | active: 0.231 µM |  |
| CCCN1/C(=C2/SC(=S)N(CC)C2=O)C=Cc2ccccc21 |  | inactive: -11.5% |
| Cc1cc(Oc2ccc(=O)[nH]n2)nc(Cl)n1 | inconclusive: 18.3 µM [activator, partial curve] |  |

Single entries from the entries so far.
For Potency, CCC(CC)=N/N=C/c1c(O)n(CC)c2cc(C3=NNC(=O)CC3)ccc12 reads active: 20.6 µM
For Potency, Cc1cc(C)nc(/N=C(\N)Nc2ccc(F)c([N+](=O)[O-])c2)n1 reads inconclusive: 9.2 µM [inhibitor, partial curve]
For Potency, CCCC(c1nnnn1CCc1ccccc1)N1CCN(C(=O)c2ccco2)CC1 (configuration not stated) reads inconclusive: 3.26 µM [activator, partial curve, poor fit]
For activity change, negative = inhibition, O=C(CSc1ccc2nnc(-c3cccc(F)c3)n2n1)NCc1ccco1 reads inactive: -0.61%
